Literature values in US20090311335A1, “COMBINATION OF A TRIPTAN AND AN NSAID” (priority 2008, published 2009).

## COc1ccc2cc([C@H](C)C(=O)O)ccc2c1 [naproxen, (S)-6-methoxy-methyl-2-naphthaleneacetic acid]
human, in vivo
  plasma concentrations required for anti-inflammatory or analgesic effects: 30 to 90 µg/mL
Sixty postpartum women, 0.5 to 6 hours after oral administration
  plasma levels at which reduced pain intensity was demonstrated: 30 to 70 µg/mL
twenty-four patients with rheumatoid arthritis
  plasma levels at which clinical response occurred: above 50 μg/ml
